According to article PMC2652428:
Results are given in words; binding and its absence hold for the method and conditions named. Binding seen in cells or lysates may run through a third protein. Some entries that bind do so weakly or less than the wild type.

T1: Mcm4-VC155 (S. pombe) (UniProt P29458)
T1 sequence: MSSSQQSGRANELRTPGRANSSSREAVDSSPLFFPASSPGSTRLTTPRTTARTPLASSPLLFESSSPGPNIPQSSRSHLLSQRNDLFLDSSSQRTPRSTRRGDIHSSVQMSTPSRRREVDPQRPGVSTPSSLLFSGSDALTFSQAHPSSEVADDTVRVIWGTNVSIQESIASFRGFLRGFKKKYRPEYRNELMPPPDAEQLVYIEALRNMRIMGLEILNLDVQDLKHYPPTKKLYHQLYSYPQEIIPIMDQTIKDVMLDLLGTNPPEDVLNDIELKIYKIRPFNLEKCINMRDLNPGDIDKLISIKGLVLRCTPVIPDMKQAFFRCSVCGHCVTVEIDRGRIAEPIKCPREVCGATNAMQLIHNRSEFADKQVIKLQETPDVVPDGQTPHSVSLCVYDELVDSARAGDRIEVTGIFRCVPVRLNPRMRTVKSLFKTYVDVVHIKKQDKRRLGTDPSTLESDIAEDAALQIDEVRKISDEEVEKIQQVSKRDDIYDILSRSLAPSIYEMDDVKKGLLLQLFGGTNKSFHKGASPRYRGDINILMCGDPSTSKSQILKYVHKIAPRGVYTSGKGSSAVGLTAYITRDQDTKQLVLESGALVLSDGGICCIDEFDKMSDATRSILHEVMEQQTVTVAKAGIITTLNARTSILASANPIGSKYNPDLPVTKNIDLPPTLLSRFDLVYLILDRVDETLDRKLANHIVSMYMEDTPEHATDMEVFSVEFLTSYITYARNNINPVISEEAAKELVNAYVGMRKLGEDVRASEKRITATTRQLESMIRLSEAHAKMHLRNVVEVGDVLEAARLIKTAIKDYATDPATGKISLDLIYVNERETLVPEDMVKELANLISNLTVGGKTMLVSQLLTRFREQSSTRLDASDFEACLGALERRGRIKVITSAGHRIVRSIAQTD

B1: Psf1-VN173 (protein, UniProt Q9P7X6 1-202)
chain: MENGLGNRSNKLIRDSKRTQYLDYLPPYQADTVNDVVNEIRAADRESLGILQNVTHEASQPFQPQDHPSEAAALLMFHSSSIYNKRCLMAYHNLRLQRLRQYCWSGGKRMESCLDTSLSTYERDYLTRYSELLAAYKGAWSELDLTGSLVPPKNLFIDVRVLKDVGDIETEYGTINLTKNSQLHVRATDVERLIAQGFLAKL
B2: Mcm4-VC155 (protein, UniProt P29458 1-911)
chain: MSSSQQSGRANELRTPGRANSSSREAVDSSPLFFPASSPGSTRLTTPRTTARTPLASSPLLFESSSPGPNIPQSSRSHLLSQRNDLFLDSSSQRTPRSTRRGDIHSSVQMSTPSRRREVDPQRPGVSTPSSLLFSGSDALTFSQAHPSSEVADDTVRVIWGTNVSIQESIASFRGFLRGFKKKYRPEYRNELMPPPDAEQLVYIEALRNMRIMGLEILNLDVQDLKHYPPTKKLYHQLYSYPQEIIPIMDQTIKDVMLDLLGTNPPEDVLNDIELKIYKIRPFNLEKCINMRDLNPGDIDKLISIKGLVLRCTPVIPDMKQAFFRCSVCGHCVTVEIDRGRIAEPIKCPREVCGATNAMQLIHNRSEFADKQVIKLQETPDVVPDGQTPHSVSLCVYDELVDSARAGDRIEVTGIFRCVPVRLNPRMRTVKSLFKTYVDVVHIKKQDKRRLGTDPSTLESDIAEDAALQIDEVRKISDEEVEKIQQVSKRDDIYDILSRSLAPSIYEMDDVKKGLLLQLFGGTNKSFHKGASPRYRGDINILMCGDPSTSKSQILKYVHKIAPRGVYTSGKGSSAVGLTAYITRDQDTKQLVLESGALVLSDGGICCIDEFDKMSDATRSILHEVMEQQTVTVAKAGIITTLNARTSILASANPIGSKYNPDLPVTKNIDLPPTLLSRFDLVYLILDRVDETLDRKLANHIVSMYMEDTPEHATDMEVFSVEFLTSYITYARNNINPVISEEAAKELVNAYVGMRKLGEDVRASEKRITATTRQLESMIRLSEAHAKMHLRNVVEVGDVLEAARLIKTAIKDYATDPATGKISLDLIYVNERETLVPEDMVKELANLISNLTVGGKTMLVSQLLTRFREQSSTRLDASDFEACLGALERRGRIKVITSAGHRIVRSIAQTD

Legend:
Mcm4-VC155 (S. pombe) [1] = molecular target: T1, Mcm4-VC155 (S. pombe); assay: split reporter; BiFC with Venus fragments VN173 and VC155 on proteins expressed from their native loci; exponentially-growing S. pombe cells (haploid or diploid), fixed with methanol/acetone, fluorescence microscopy
Mcm4-VC155 (S. pombe) [2] = molecular target: T1, Mcm4-VC155 (S. pombe); assay: split reporter; chromatin-associated BiFC: S. pombe cells extracted with Triton X-100 in Mg2+-containing low salt buffer at 20°C for 10 min, fixed with methanol/acetone, fluorescence microscopy; also cells treated with 12 mM hydroxyurea for 2 and 4 hours

Binder | binding (Mcm4-VC155 (S. pombe) [1]) | binding (Mcm4-VC155 (S. pombe) [2])
B1 | binds | binds
B2 | binds | binds
